By UniProt entry, the sequences of proteins in these tests, tags left out. Where a name states a change or a piece, a line headed by the entry shows the natural chain unless it says otherwise.
UniProt P18669: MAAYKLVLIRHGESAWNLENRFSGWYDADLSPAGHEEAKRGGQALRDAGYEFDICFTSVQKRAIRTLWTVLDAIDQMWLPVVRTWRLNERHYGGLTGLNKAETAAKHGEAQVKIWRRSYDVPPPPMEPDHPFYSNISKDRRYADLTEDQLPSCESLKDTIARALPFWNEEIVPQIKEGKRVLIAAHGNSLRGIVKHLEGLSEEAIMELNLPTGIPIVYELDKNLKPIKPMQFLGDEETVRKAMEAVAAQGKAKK
UniProt Q6ZUJ8: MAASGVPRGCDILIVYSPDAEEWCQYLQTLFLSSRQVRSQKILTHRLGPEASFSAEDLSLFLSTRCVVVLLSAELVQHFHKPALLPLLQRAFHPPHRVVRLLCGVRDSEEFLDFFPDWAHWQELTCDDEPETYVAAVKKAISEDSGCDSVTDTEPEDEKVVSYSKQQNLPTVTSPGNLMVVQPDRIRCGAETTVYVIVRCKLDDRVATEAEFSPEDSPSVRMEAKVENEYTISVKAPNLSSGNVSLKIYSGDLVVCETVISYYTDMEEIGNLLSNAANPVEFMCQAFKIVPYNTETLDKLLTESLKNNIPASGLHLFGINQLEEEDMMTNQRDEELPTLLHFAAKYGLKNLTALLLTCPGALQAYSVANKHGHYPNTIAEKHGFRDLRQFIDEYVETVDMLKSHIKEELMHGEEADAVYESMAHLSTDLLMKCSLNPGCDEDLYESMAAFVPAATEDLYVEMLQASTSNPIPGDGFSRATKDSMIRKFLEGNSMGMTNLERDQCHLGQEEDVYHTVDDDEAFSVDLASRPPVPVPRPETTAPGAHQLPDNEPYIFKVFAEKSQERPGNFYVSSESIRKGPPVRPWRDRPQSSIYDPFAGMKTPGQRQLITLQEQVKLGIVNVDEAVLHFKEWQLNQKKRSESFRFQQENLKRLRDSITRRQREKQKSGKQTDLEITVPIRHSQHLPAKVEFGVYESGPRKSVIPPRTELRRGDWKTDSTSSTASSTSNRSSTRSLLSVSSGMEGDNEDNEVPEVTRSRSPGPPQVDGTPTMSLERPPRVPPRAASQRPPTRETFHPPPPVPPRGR
UniProt Q7RTV0, whole entry, looked up: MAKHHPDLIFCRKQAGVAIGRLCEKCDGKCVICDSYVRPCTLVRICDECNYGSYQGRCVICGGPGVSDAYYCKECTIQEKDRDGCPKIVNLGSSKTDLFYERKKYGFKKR
UniProt O60346: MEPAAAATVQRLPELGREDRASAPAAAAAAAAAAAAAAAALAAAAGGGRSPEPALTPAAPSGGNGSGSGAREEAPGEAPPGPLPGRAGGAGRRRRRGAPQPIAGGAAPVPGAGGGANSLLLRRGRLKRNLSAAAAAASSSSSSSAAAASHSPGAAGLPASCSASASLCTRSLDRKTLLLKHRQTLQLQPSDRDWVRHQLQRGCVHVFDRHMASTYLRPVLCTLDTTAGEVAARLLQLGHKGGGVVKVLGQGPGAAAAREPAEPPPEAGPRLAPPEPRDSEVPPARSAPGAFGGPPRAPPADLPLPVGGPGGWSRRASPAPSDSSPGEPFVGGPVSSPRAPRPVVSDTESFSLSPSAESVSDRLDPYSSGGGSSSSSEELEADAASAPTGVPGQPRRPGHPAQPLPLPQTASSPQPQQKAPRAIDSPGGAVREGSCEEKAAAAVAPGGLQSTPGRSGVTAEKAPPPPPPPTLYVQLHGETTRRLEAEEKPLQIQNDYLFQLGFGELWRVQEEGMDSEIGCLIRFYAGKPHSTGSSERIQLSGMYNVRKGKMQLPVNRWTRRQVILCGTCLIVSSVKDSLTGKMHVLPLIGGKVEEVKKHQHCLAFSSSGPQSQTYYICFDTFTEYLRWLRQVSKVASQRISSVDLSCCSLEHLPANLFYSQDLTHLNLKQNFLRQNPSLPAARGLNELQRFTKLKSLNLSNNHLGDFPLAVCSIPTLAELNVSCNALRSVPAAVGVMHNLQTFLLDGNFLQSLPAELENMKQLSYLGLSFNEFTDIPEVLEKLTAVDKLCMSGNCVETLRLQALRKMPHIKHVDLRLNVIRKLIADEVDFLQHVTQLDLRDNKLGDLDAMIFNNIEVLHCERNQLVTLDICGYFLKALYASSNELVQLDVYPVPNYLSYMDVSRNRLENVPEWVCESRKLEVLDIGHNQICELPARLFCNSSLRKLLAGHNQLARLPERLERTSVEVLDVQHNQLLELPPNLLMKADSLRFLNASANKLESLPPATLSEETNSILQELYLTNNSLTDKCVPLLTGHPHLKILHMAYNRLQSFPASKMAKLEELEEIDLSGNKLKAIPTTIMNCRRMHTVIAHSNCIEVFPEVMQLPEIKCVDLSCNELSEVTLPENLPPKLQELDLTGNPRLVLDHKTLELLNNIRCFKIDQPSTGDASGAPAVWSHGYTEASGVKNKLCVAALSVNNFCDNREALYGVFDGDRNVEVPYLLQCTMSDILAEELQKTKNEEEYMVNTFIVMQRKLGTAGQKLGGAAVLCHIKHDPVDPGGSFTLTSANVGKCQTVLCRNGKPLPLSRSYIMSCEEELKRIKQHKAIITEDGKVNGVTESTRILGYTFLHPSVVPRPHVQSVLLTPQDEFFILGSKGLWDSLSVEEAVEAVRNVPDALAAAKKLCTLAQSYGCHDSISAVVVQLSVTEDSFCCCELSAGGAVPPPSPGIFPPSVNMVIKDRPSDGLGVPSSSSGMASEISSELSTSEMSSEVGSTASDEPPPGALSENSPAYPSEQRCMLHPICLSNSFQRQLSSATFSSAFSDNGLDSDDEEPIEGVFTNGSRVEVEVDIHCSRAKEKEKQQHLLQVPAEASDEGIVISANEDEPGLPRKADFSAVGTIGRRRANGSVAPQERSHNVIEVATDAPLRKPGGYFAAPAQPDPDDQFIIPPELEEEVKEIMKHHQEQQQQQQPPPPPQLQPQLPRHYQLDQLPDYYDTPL
UniProt O43175: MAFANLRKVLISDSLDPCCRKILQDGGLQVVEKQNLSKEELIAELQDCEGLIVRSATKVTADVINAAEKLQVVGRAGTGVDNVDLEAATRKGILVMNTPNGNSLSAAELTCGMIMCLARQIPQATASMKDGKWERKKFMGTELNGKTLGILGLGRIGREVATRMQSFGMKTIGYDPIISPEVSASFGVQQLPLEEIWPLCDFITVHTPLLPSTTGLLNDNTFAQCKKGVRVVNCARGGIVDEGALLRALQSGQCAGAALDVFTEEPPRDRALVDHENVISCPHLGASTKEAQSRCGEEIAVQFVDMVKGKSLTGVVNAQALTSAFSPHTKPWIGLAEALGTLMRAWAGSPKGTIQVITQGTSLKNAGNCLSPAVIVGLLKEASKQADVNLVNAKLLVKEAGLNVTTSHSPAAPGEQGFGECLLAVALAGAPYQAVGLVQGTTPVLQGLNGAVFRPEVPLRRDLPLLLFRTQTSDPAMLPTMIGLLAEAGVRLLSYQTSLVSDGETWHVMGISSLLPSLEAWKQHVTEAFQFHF
UniProt O75151: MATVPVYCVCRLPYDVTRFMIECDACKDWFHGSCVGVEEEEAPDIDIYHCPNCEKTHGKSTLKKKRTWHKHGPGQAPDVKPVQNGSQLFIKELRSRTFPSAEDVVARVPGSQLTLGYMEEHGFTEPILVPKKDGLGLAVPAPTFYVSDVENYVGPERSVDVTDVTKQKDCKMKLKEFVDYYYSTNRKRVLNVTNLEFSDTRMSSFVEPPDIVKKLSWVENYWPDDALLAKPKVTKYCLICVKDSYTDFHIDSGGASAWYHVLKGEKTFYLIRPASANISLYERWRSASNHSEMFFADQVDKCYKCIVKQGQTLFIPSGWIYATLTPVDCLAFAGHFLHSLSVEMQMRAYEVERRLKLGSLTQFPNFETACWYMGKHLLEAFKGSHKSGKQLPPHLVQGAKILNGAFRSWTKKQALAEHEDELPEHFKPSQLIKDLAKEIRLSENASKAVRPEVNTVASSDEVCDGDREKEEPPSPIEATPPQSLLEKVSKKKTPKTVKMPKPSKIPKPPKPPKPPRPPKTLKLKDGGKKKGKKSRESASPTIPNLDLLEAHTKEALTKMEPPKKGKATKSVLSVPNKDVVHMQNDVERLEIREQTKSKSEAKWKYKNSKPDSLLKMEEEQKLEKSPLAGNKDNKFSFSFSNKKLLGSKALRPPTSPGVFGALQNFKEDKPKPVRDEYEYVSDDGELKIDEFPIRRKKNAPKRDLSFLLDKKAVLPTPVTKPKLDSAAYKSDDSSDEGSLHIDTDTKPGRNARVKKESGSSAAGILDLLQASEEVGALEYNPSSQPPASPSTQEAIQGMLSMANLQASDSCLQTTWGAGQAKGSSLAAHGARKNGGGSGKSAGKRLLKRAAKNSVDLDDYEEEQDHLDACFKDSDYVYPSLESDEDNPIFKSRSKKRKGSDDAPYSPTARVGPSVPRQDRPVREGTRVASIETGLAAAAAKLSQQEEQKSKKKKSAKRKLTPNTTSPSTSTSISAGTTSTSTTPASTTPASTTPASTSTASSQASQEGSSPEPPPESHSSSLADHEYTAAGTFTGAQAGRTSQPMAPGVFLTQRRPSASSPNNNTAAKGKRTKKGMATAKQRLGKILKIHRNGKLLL
UniProt P07737, whole entry, looked up: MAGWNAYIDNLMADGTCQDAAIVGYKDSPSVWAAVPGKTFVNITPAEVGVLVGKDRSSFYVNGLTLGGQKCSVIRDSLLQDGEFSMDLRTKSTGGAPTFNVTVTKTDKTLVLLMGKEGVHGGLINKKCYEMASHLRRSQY
UniProt O00329: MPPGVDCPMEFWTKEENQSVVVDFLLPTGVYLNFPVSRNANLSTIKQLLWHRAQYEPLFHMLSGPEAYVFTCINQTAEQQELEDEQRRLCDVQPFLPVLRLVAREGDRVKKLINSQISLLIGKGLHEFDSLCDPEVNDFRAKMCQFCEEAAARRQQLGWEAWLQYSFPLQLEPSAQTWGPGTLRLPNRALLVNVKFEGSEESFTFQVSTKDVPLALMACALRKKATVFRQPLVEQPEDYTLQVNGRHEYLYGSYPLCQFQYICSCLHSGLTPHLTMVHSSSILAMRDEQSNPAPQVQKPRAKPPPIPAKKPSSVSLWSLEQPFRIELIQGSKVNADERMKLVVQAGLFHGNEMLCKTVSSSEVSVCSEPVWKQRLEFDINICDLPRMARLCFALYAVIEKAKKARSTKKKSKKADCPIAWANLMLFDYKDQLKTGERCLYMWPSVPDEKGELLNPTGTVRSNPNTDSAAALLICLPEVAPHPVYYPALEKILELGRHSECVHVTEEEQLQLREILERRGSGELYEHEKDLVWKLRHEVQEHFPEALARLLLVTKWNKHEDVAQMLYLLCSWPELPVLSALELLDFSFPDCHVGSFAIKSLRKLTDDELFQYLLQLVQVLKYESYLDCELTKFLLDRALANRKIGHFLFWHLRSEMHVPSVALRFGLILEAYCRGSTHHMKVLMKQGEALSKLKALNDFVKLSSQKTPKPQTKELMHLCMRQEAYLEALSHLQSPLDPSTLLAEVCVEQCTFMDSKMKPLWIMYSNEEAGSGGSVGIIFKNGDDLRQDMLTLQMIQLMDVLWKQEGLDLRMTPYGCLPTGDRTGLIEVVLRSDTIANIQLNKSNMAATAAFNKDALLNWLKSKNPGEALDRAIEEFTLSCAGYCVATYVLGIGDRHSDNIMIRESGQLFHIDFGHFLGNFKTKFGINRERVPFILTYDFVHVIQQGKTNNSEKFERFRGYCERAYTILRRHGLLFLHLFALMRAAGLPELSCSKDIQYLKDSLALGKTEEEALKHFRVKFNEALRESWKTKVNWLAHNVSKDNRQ
UniProt Q9BTU6: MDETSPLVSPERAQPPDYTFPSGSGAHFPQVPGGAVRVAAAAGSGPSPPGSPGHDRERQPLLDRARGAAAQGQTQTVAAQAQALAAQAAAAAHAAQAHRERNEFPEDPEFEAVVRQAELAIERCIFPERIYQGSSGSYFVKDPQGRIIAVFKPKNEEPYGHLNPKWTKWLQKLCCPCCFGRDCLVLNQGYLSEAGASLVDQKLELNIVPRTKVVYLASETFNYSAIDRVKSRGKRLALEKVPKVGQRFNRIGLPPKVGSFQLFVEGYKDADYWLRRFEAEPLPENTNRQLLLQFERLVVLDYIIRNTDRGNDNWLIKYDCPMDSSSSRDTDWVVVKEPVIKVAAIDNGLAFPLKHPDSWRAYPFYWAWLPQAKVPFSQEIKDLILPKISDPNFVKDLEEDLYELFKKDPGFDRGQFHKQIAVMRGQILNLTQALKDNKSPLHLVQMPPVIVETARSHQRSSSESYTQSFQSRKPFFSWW
UniProt P15735: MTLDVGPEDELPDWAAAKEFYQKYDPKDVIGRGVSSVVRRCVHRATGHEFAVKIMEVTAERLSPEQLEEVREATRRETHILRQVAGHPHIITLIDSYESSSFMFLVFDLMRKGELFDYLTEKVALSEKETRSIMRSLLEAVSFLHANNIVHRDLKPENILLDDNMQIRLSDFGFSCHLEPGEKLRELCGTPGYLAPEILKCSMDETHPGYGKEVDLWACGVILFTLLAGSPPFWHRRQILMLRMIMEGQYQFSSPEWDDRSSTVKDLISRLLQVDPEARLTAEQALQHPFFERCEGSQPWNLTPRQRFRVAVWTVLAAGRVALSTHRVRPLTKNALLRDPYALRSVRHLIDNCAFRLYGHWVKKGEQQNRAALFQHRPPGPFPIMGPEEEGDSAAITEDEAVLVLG

The other results are listed elsewhere or left out.
What follows are targets tested with Cc1cc(ccc1-c1ccccc1)C(=O)N1CCCN(CC1)C(=O)CCl [compound 10] (assay: probe-labelled cysteine peptide fold change vs DMSO (competition) (log2 fold change); higher = less target engagement (more negative = stronger competition)). Details: 10 µM; THP-1; incubation time: 4 h.
“PGAM1_P18669_153_RYADLTEDQLPSCESLK (UniProt P18669)” was tested, and the “probe-labelled cysteine peptide fold change” value was -0.161.
In the case of “PIK3AP1_Q6ZUJ8_147_AISEDSGCDSVTDTEPEDEK (UniProt Q6ZUJ8)”, the “probe-labelled cysteine peptide fold change” value is reported as -0.165.
In the case of “PEPD_P12955_58_YCTDTGVLFR (UniProt P12955)”, the “probe-labelled cysteine peptide fold change” value is reported as 0.0457.
In the case of “PGK1_P00558_316_TGQATVASGIPAGWMGLDCGPESSK (UniProt P00558)”, the “probe-labelled cysteine peptide fold change” value is reported as -0.217.
In the case of “PGPEP1_Q9NXJ5_99_GLDNCR (UniProt Q9NXJ5)”, the “probe-labelled cysteine peptide fold change” value is reported as -0.124.
For “PHF5A_Q7RTV0_11_HHPDLIFCR (UniProt Q7RTV0)”, the “probe-labelled cysteine peptide fold change” value was -0.112.
With “PHF6_Q8IWS0_85_LMCSLCHCPGATIGCDVK (UniProt Q8IWS0)” the “probe-labelled cysteine peptide fold change” value was 0.294.
“PGM2L1_Q6PCE3_303_CPNPEEGESVLELSLR (UniProt Q6PCE3)” was tested, and the “probe-labelled cysteine peptide fold change” value was -0.215.
In the case of “PEPD_P12955_158_GVNTDSGSVCR (UniProt P12955)”, the “probe-labelled cysteine peptide fold change” value is reported as -0.0905.
With “PEX6_Q13608_761_AVATECSLTFLSVK (UniProt Q13608)” the “probe-labelled cysteine peptide fold change” value was 0.178.
“PHLPP1_O60346_914_NRLENVPEWVCESR (UniProt O60346)” was tested, and the “probe-labelled cysteine peptide fold change” value was 0.182.
“PFAS_O15067_871_LGGTALAQCFSQLGEHPPDLDLPENLVR (UniProt O15067)” was tested, and the “probe-labelled cysteine peptide fold change” value was 0.0885.
With “PHGDH_O43175_48_QNLSKEELIAELQDCEGLIVR (UniProt O43175)” the “probe-labelled cysteine peptide fold change” value was -0.205.
In the case of “PHF2_O75151_50_DWFHGSCVGVEEEEAPDIDIYHCPNCEK (UniProt O75151)”, the “probe-labelled cysteine peptide fold change” value is reported as -0.049.
“PFAS_O15067_108_LNFSTPTSTNIVSVCR (UniProt O15067)” was tested, and the “probe-labelled cysteine peptide fold change” value was 0.275.
“PHF6_Q8IWS0_212_CGFCHVGEEENEAR (UniProt Q8IWS0)” was tested, and the “probe-labelled cysteine peptide fold change” value was 0.14.
With “PIK3CB_P42338_392_NDHIWNEPLEFDINICDLPR (UniProt P42338)” the “probe-labelled cysteine peptide fold change” value was 0.119.
For “PIK3C2A_O00443_541_HLYQIEKPCK (UniProt O00443)”, the “probe-labelled cysteine peptide fold change” value was -0.457.
In the case of “PFN1_P07737_128_KCYEMASHLRR (UniProt P07737)”, the “probe-labelled cysteine peptide fold change” value is reported as -0.531.
With “PGK1_P00558_379+380_GCITIIGGGDTATCCAK (UniProt P00558)” the “probe-labelled cysteine peptide fold change” value was 0.251.
In the case of “PIK3CD_O00329_382_QRLEFDINICDLPR (UniProt O00329)”, the “probe-labelled cysteine peptide fold change” value is reported as -0.0788.
In the case of “PI4K2A_Q9BTU6_320_YDCPMDSSSSR (UniProt Q9BTU6)”, the “probe-labelled cysteine peptide fold change” value is reported as -0.0602.
“PGM2_Q96G03_510_ACGKFEISAIR (UniProt Q96G03)” was tested, and the “probe-labelled cysteine peptide fold change” value was -0.395.
“PFAS_O15067_606_RIVLVDDRECPVR (UniProt O15067)” was tested, and the “probe-labelled cysteine peptide fold change” value was -0.103.
For “PGD_P52209_289_CLSSLKDER (UniProt P52209)”, the “probe-labelled cysteine peptide fold change” value was -0.0918.
With “PHGDH_O43175_18+19_VLISDSLDPCCR (UniProt O43175)” the “probe-labelled cysteine peptide fold change” value was -0.0629.
In the case of “PFAS_O15067_606_IVLVDDRECPVR (UniProt O15067)”, the “probe-labelled cysteine peptide fold change” value is reported as -0.134.
In the case of “PGAM5_Q96HS1_168_HLPGVCK (UniProt Q96HS1)”, the “probe-labelled cysteine peptide fold change” value is reported as -0.066.
For “PHF20_Q9BVI0_840_SVEESYITSEHCYQK (UniProt Q9BVI0)”, the “probe-labelled cysteine peptide fold change” value was -0.209.
With “PI4KA_P42356_1131_QNTTLGATQLSERPACVK (UniProt P42356)” the “probe-labelled cysteine peptide fold change” value was -0.134.
In the case of “PHYH_O14832_280+287_AISCHFASADCHYIDVK (UniProt O14832)”, the “probe-labelled cysteine peptide fold change” value is reported as -0.0227.
In the case of “PGD_P52209_171_VGTGEPCCDWVGDEGAGHFVK (UniProt P52209)”, the “probe-labelled cysteine peptide fold change” value is reported as -0.171.
For “PHGDH_O43175_369_NAGNCLSPAVIVGLLK (UniProt O43175)”, the “probe-labelled cysteine peptide fold change” value was -0.159.
“PHKG2_P15735_353_HLIDNCAFR (UniProt P15735)” was tested, and the “probe-labelled cysteine peptide fold change” value was 0.0938.
With “PIGT_Q969N2_195_LLPCSSK (UniProt Q969N2)” the “probe-labelled cysteine peptide fold change” value was -0.244.
In the case of “PHGDH_O43175_18_VLISDSLDPCCR (UniProt O43175)”, the “probe-labelled cysteine peptide fold change” value is reported as -0.444.
With “PHF5A_Q7RTV0_30+40_CVICDSYVRPCTLVR (UniProt Q7RTV0)” the “probe-labelled cysteine peptide fold change” value was 0.118.
In the case of “PIK3CB_P42338_551_EILDRDPLSQLCENEMDLIWTLR (UniProt P42338)”, the “probe-labelled cysteine peptide fold change” value is reported as -0.101.
“PGD_P52209_402_SAVENCQDSWRR (UniProt P52209)” was tested, and the “probe-labelled cysteine peptide fold change” value was -0.136.

Same assay, conditions: 50 µM; THP-1; incubation time: 4 h
“PGAM1_P18669_153_RYADLTEDQLPSCESLK (UniProt P18669)” was tested, and the “probe-labelled cysteine peptide fold change” value was -0.282.
In the case of “PIK3AP1_Q6ZUJ8_147_AISEDSGCDSVTDTEPEDEK (UniProt Q6ZUJ8)”, the “probe-labelled cysteine peptide fold change” value is reported as -0.16.
In the case of “PEPD_P12955_58_YCTDTGVLFR (UniProt P12955)”, the “probe-labelled cysteine peptide fold change” value is reported as 0.0174.
With “PGK1_P00558_316_TGQATVASGIPAGWMGLDCGPESSK (UniProt P00558)” the “probe-labelled cysteine peptide fold change” value was 0.0673.
For “PGPEP1_Q9NXJ5_99_GLDNCR (UniProt Q9NXJ5)”, the “probe-labelled cysteine peptide fold change” value was -0.8.
With “PHF5A_Q7RTV0_11_HHPDLIFCR (UniProt Q7RTV0)” the “probe-labelled cysteine peptide fold change” value was -0.0226.
In the case of “PHF6_Q8IWS0_85_LMCSLCHCPGATIGCDVK (UniProt Q8IWS0)”, the “probe-labelled cysteine peptide fold change” value is reported as 0.293.
In the case of “PGM2L1_Q6PCE3_303_CPNPEEGESVLELSLR (UniProt Q6PCE3)”, the “probe-labelled cysteine peptide fold change” value is reported as -0.533.
In the case of “PEPD_P12955_158_GVNTDSGSVCR (UniProt P12955)”, the “probe-labelled cysteine peptide fold change” value is reported as -0.0716.
In the case of “PEX6_Q13608_761_AVATECSLTFLSVK (UniProt Q13608)”, the “probe-labelled cysteine peptide fold change” value is reported as 0.204.
“PHLPP1_O60346_914_NRLENVPEWVCESR (UniProt O60346)” was tested, and the “probe-labelled cysteine peptide fold change” value was -0.105.
With “PFAS_O15067_871_LGGTALAQCFSQLGEHPPDLDLPENLVR (UniProt O15067)” the “probe-labelled cysteine peptide fold change” value was -0.002.
“PHGDH_O43175_48_QNLSKEELIAELQDCEGLIVR (UniProt O43175)” was tested, and the “probe-labelled cysteine peptide fold change” value was -0.702.
In the case of “PHF2_O75151_50_DWFHGSCVGVEEEEAPDIDIYHCPNCEK (UniProt O75151)”, the “probe-labelled cysteine peptide fold change” value is reported as -0.387.
In the case of “PFAS_O15067_108_LNFSTPTSTNIVSVCR (UniProt O15067)”, the “probe-labelled cysteine peptide fold change” value is reported as 0.139.
With “PHF6_Q8IWS0_212_CGFCHVGEEENEAR (UniProt Q8IWS0)” the “probe-labelled cysteine peptide fold change” value was -0.1.
“PIK3CB_P42338_392_NDHIWNEPLEFDINICDLPR (UniProt P42338)” was tested, and the “probe-labelled cysteine peptide fold change” value was 0.395.
For “PIK3C2A_O00443_541_HLYQIEKPCK (UniProt O00443)”, the “probe-labelled cysteine peptide fold change” value was -1.29.
For “PFN1_P07737_128_KCYEMASHLRR (UniProt P07737)”, the “probe-labelled cysteine peptide fold change” value was -0.695.
In the case of “PGK1_P00558_379+380_GCITIIGGGDTATCCAK (UniProt P00558)”, the “probe-labelled cysteine peptide fold change” value is reported as -0.741.
For “PIK3CD_O00329_382_QRLEFDINICDLPR (UniProt O00329)”, the “probe-labelled cysteine peptide fold change” value was 0.232.
In the case of “PI4K2A_Q9BTU6_320_YDCPMDSSSSR (UniProt Q9BTU6)”, the “probe-labelled cysteine peptide fold change” value is reported as -0.277.
For “PGM2_Q96G03_510_ACGKFEISAIR (UniProt Q96G03)”, the “probe-labelled cysteine peptide fold change” value was -0.595.
In the case of “PFAS_O15067_606_RIVLVDDRECPVR (UniProt O15067)”, the “probe-labelled cysteine peptide fold change” value is reported as -0.192.
For “PGD_P52209_289_CLSSLKDER (UniProt P52209)”, the “probe-labelled cysteine peptide fold change” value was -0.7.
“PHGDH_O43175_18+19_VLISDSLDPCCR (UniProt O43175)” was tested, and the “probe-labelled cysteine peptide fold change” value was -0.691.
With “PFAS_O15067_606_IVLVDDRECPVR (UniProt O15067)” the “probe-labelled cysteine peptide fold change” value was -0.174.
For “PGAM5_Q96HS1_168_HLPGVCK (UniProt Q96HS1)”, the “probe-labelled cysteine peptide fold change” value was -0.231.
With “PHF20_Q9BVI0_840_SVEESYITSEHCYQK (UniProt Q9BVI0)” the “probe-labelled cysteine peptide fold change” value was -0.0845.
In the case of “PI4KA_P42356_1131_QNTTLGATQLSERPACVK (UniProt P42356)”, the “probe-labelled cysteine peptide fold change” value is reported as -0.0751.
With “PHYH_O14832_280+287_AISCHFASADCHYIDVK (UniProt O14832)” the “probe-labelled cysteine peptide fold change” value was 0.0594.
In the case of “PGD_P52209_171_VGTGEPCCDWVGDEGAGHFVK (UniProt P52209)”, the “probe-labelled cysteine peptide fold change” value is reported as -0.741.
For “PHGDH_O43175_369_NAGNCLSPAVIVGLLK (UniProt O43175)”, the “probe-labelled cysteine peptide fold change” value was -0.84.
For “PHKG2_P15735_353_HLIDNCAFR (UniProt P15735)”, the “probe-labelled cysteine peptide fold change” value was 0.16.
In the case of “PIGT_Q969N2_195_LLPCSSK (UniProt Q969N2)”, the “probe-labelled cysteine peptide fold change” value is reported as 0.0166.
“PHGDH_O43175_18_VLISDSLDPCCR (UniProt O43175)” was tested, and the “probe-labelled cysteine peptide fold change” value was -0.677.
With “PHF5A_Q7RTV0_30+40_CVICDSYVRPCTLVR (UniProt Q7RTV0)” the “probe-labelled cysteine peptide fold change” value was -0.292.
For “PIK3CB_P42338_551_EILDRDPLSQLCENEMDLIWTLR (UniProt P42338)”, the “probe-labelled cysteine peptide fold change” value was -0.0111.
For “PGD_P52209_402_SAVENCQDSWRR (UniProt P52209)”, the “probe-labelled cysteine peptide fold change” value was -0.26.
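Further: competitive profiling in live THP-1 cells: cysteine peptides tagged with an iodoacetamide desthiobiotin (IA-DTB) probe, intensity after compound treatment relative to DMSO-treated cells.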
